No constants are given. Whether binding was seen depends on the method and setting. For part of these data: Binding seen in cells or lysates may run through a third protein. Some results given as binding are weak or reduced against the parent protein; the word gives no strength. One block for each substance: values may come before it.
Columns and labels:
[1] = biological target: heat shock transcription factor 1 (HSF1), endogenous in HdhQ7/HdhQ111 striatal cells (mouse (endogenous in HdhQ7/HdhQ111 striatal cells)) (UniProt P38532); assay: co-IP; total cell lysates in HEPES buffer (20 mM HEPES pH 7.2, 50 mM NaCl, 0.5% Triton X-100); 1 mg protein with anti-HSF1 antibody or IgG overnight at 4°C, protein A/G beads 1 h; immunoblot; HdhQ7/HdhQ111 cells, patient and control fibroblasts; in one panel HdhQ111 cells treated with TAT, DH1 or DH2 (1 μM, 3 days)
[2] = biological target: heat shock transcription factor 1 (HSF1), endogenous in human fibroblasts (human (endogenous in fibroblasts)) (UniProt Q00613); assay: as above
recombinant GST-HSF1 = recombinant GST-HSF1 (UniProt Q00613); assay: pull-down; purified His-Drp1 and recombinant GST-HSF1 (500 ng each) mixed in HEPES buffer 1 h at RT; HSF1 antibody overnight at 4°C, then protein A/G beads 1 h; WB (called GST pulldown in the results); both purified

By UniProt entry, the sequences of proteins in these tests, tags left out. Where a name states a change or a piece, a line headed by the entry shows the natural chain unless it says otherwise.
UniProt P38532: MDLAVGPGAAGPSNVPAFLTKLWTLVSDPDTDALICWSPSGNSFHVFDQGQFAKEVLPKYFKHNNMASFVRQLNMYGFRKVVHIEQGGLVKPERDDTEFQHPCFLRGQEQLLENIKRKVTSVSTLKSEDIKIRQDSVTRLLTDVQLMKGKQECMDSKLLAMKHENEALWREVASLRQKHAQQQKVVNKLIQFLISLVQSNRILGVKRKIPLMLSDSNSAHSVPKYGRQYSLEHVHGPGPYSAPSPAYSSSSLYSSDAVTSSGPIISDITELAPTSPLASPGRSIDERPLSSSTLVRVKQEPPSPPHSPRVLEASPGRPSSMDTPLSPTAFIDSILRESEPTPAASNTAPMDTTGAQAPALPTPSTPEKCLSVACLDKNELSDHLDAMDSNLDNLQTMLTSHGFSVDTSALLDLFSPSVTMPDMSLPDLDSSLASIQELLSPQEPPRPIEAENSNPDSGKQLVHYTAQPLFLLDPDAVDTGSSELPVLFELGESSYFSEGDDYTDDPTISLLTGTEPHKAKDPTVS
UniProt Q00613: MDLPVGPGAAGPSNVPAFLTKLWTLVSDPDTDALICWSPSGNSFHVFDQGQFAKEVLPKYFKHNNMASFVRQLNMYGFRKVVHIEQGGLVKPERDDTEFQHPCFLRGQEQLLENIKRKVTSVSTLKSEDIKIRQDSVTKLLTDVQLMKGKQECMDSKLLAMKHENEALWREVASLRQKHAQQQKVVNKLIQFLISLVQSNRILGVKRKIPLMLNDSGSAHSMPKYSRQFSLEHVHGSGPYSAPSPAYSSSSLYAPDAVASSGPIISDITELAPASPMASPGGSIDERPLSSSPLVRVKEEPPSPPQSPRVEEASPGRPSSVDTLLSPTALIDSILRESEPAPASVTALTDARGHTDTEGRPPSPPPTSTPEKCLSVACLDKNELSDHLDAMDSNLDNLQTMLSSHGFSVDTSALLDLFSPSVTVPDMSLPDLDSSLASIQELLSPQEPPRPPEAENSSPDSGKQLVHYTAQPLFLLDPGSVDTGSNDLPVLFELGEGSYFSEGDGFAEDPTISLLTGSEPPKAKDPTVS
UniProt Q8K1M6: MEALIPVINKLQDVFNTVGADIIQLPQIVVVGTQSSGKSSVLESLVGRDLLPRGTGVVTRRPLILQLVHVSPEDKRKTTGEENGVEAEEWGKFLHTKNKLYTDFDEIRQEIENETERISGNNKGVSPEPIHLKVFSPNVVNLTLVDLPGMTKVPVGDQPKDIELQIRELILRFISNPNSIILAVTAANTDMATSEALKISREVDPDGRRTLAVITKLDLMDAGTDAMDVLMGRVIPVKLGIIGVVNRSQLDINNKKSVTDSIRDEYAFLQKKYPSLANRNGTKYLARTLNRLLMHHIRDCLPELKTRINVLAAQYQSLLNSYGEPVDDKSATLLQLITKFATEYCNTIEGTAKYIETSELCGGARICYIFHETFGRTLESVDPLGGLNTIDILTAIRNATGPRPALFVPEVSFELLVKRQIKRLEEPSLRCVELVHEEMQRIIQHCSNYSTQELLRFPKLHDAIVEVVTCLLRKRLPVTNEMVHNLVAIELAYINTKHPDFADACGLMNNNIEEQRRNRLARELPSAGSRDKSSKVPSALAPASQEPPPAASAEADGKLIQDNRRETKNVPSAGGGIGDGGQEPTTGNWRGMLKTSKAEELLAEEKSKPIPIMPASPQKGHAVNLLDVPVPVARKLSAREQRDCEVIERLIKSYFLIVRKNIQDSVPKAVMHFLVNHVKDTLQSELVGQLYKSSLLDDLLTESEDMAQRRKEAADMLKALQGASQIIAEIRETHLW
UniProt O00429: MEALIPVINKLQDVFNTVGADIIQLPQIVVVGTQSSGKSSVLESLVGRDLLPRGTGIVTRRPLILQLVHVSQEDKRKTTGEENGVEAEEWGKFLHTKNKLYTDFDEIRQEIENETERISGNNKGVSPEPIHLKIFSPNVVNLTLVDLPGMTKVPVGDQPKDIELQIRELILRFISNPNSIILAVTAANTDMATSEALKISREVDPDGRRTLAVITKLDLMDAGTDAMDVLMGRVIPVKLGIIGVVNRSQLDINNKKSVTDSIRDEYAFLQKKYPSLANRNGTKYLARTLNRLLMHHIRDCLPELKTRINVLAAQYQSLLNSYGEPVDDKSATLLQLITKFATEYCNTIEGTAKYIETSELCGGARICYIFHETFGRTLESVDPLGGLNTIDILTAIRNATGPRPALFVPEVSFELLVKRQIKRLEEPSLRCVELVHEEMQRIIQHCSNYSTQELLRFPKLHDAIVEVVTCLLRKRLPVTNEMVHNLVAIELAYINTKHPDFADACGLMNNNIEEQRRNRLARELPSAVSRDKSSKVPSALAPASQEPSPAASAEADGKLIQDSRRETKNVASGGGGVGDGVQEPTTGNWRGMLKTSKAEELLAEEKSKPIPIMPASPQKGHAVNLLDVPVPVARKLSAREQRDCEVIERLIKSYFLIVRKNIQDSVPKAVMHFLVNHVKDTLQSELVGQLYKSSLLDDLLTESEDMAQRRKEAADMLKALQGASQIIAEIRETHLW

- binding [1]: binds
Substance: dynamin-related protein 1 (Drp1), endogenous in HdhQ7/HdhQ111 striatal cells (from UniProt Q8K1M6 1-736)

- binding [2]: binds
Substance: dynamin-related protein 1 (Drp1), endogenous in human fibroblasts (from UniProt O00429-1 1-736)

- binding (recombinant GST-HSF1): binds
Substance: recombinant His-Drp1 (from UniProt O00429 1-736)

Reference: publication PMC9260212
